Reference: publication PMC4958294
Results are given in words; binding and its absence hold for the method and conditions named. In cells and extracts the contact can be indirect. Binding can be weak; no strength is given. For some assays here: Where a sequence is shown, tags or fusion partners need not be part of it. Blank lines part the entries; values can stand above or below the molecule they belong to.

Tests used:
[1] = molecular target: T1, GST–CT2 (Gin4 residues 751–1050 fused to GST) (Candida albicans) (UniProt Q59W62); experiment: pull-down; GST–CT2 purified from E. coli held on GST-Trap beads, incubated with lysates of GIN4-ON or GIN4-OFF C. albicans cells expressing Cdc12–Myc; washes with 150 mM or 1 M NaCl; western blot for Myc and GST; only the target purified
T1 sequence: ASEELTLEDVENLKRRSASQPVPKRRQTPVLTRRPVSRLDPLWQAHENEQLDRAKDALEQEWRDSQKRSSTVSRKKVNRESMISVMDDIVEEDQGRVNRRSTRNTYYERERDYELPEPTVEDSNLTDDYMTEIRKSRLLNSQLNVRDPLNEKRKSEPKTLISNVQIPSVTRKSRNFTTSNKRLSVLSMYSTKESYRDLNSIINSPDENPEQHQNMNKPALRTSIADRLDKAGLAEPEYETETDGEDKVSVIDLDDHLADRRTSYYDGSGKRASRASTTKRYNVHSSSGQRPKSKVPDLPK

[2] = molecular target: Cdc12–Myc (septin Cdc12, C-terminal Myc tag) (Candida albicans); experiment: co-IP; CT1 with Cdc12 in GIN4-ON and GIN4-OFF C. albicans cells (Fig. S1B); beads and tags not given

- binding [1]: binds
Molecule: Cdc12–Myc (septin Cdc12, C-terminal Myc tag) (Candida albicans)

- binding [2]: binds
B1: CT1 (Gin4 residues 1051–1349) (domain or fragment, UniProt Q59W62 1051-1349)
chain: NDYDDTFVSNSDEVHKRQYKSMVSDESSASDDVFDKIKLPDGKSTKSSIDELANGTSTSGHRKPKIRHSQPGPEMLIPHLNGGIESSQPMSKVRGNNSSGHDDSVPPPPPAHKVNKKPLDDKTNFPPPEVDPKRKGSFFRKLSWGSKKTIENNTNAATNTTTQQQLPSPAESKEEKPKSSFFRWFSSSNTPSAAEIRKFNTILPKHEMSTALFALLNSWSNFGLKDLRNDQVGYYITGAISKHNSFNLKSCKFRIKINQRDFNQKSEIVCVRVKGSKVTTDTLFSEIEKVLLKEGVLDK
